This passage reports binding results from article PMC5501841.

Sequences of proteins named here, by UniProt entry; tags and fusion partners are left off. A change or cut given only in a name is not applied to a line headed by its entry. Residues count along the entry.
UniProt P04004, residues 20-478: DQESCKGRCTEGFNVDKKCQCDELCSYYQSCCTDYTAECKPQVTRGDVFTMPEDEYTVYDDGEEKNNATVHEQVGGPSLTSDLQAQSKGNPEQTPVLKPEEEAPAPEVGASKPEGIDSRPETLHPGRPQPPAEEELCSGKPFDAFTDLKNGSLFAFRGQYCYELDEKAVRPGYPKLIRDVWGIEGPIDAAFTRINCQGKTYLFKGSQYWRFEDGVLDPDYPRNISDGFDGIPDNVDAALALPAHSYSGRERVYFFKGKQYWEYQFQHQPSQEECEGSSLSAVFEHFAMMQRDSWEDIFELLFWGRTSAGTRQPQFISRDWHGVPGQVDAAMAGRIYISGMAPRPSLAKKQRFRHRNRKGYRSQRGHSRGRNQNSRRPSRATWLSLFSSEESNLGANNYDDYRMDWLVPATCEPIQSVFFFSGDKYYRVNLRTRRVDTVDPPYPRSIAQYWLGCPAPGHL
UniProt P02454: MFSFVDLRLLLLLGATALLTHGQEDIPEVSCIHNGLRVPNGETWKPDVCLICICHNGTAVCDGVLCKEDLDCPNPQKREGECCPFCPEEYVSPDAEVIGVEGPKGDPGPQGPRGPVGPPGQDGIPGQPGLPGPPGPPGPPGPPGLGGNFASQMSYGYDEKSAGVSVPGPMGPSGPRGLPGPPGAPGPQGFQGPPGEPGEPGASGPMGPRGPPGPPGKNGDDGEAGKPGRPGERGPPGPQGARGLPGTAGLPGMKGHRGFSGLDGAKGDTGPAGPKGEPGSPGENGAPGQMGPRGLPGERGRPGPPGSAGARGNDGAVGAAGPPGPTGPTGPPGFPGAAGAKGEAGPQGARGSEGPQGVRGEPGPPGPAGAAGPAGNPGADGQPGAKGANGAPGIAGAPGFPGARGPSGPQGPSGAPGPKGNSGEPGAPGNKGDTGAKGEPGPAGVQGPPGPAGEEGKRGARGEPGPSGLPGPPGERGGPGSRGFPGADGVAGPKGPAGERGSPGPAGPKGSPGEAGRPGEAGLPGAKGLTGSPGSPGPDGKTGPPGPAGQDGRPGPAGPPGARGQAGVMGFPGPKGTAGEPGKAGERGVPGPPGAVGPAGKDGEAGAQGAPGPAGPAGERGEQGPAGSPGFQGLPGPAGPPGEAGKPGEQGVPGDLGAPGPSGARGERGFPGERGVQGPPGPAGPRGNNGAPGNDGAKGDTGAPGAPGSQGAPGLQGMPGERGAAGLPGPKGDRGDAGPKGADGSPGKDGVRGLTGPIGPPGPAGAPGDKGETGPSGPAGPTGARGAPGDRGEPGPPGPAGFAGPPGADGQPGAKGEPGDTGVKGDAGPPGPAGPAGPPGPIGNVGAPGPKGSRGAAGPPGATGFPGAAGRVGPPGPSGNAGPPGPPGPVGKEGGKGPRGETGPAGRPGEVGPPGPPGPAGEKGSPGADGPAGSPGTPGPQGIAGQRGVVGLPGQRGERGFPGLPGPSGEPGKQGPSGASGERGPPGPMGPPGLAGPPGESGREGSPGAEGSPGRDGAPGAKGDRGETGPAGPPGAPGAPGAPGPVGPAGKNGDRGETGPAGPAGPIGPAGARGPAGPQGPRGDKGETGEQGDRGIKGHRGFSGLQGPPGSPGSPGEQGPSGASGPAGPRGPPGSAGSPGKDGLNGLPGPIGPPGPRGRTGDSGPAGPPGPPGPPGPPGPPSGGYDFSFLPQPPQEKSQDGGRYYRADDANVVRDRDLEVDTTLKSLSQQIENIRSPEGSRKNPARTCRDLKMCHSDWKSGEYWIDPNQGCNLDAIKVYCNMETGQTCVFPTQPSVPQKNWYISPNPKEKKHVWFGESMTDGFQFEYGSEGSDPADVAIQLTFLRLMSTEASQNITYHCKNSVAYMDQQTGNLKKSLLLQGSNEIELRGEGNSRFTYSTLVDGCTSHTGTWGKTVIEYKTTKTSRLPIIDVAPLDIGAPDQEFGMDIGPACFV
UniProt O15072: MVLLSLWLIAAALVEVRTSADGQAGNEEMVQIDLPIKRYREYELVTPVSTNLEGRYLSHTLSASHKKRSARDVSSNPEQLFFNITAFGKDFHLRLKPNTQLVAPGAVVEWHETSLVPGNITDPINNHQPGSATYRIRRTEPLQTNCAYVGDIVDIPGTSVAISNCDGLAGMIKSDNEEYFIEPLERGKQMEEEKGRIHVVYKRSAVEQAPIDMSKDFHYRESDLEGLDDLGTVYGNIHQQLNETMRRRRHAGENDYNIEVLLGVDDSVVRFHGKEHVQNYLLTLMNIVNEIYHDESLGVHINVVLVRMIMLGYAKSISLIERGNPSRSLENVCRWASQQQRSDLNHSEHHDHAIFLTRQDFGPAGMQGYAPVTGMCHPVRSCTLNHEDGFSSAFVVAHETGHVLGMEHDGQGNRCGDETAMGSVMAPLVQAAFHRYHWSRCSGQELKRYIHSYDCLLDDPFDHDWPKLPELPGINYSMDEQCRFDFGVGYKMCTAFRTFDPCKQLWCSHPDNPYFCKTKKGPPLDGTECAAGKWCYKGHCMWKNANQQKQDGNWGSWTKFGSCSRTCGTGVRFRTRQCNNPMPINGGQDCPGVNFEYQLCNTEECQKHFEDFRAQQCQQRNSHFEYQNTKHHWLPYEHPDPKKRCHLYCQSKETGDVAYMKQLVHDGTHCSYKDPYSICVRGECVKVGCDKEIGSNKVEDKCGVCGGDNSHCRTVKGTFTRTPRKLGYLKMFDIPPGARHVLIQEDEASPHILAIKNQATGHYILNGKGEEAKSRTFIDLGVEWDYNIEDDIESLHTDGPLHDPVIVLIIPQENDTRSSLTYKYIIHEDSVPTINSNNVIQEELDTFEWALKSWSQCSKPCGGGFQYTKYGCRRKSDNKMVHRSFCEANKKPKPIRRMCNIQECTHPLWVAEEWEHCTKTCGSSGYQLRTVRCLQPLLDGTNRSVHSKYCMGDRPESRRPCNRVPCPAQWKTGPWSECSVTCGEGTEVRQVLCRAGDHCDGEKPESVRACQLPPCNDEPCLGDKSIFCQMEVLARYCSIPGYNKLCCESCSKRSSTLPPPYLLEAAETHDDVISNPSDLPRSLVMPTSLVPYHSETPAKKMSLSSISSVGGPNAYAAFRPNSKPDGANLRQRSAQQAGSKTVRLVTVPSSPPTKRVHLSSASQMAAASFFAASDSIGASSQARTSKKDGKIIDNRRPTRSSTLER
UniProt P49767: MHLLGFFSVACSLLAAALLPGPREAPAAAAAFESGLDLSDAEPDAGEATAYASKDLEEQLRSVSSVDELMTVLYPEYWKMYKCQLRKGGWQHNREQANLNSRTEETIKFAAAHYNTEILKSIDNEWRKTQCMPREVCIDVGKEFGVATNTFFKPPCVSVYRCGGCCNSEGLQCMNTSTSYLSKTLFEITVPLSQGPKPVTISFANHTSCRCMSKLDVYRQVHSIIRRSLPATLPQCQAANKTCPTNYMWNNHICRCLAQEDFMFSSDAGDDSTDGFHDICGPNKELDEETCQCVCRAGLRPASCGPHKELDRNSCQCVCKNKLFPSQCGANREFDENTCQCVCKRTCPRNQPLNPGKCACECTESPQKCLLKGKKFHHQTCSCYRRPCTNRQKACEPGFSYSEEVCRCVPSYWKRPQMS

In experiment [1] the target is recombinant vitronectin-Fc (UniProt P04004). As to the kind of experiment: ELISA; solid-phase binding assay; vitronectin-Fc, human VEGFR-3/IgG fusion proteins or BSA coated at 20 μg/ml in PBS; CCBE1-175-V5 at 10 μg/ml in PBS overnight at 4 °C with 1 mM CaCl2; detected with anti-V5 antibody; both purified. (In an ELISA, binding on a coated surface is turned into a signal by an enzyme label.)

In the next experiment the target is collagen type 1 (UniProt P02454). Nature of the experiment: ELISA; solid-phase binding assay; collagen type 1, gelatin or fibronectin coated at 20 μg/ml in PBS on Maxisorp plates; pro-VEGF-C in solution, detected with anti-VEGF-C antiserum 6; both purified.
In experiment [2] the target is ADAMTS3 R565Q variant (human) (UniProt O15072). Nature of the experiment: co-IP; conditioned media of 293T-CCBE1-StrepIII cells transfected with ADAMTS3 or ADAMTS3-R565Q; ADAMTS3 immunoprecipitated with antibodies/Protein G sepharose or streptactin sepharose; detection with streptactin-HRP.
Experiment [3] concerns the target wild type ADAMTS3 (human) (UniProt O15072). The experiment is described as above.

No constants are given. Whether binding was seen depends on the method and setting. A result given as binding can be weak or reduced; the word gives no strength. For some of these results: Binding seen in cells or lysates may run through a third protein.

“N-terminal domain of CCBE1 (CCBE1-175-V5) (from UniProt Q6UXH8) (domain or fragment)”: the binding result in experiment [1] is listed as “binds”.
Take “pro-VEGF-C (recombinant protein) (from UniProt P49767) (ligand)”: in the experiment with collagen type 1, the binding entry is given as “binds”.

B1: CCBE1-StrepIII (protein, UniProt Q6UXH8 35-406)
chain: YREEPEDGDREICSESKIATTKYPCLKSSGELTTCYRKKCCKGYKFVLGQCIPEDYDVCAEAPCEQQCTDNFGRVLCTCYPGYRYDRERHRKREKPYCLDIDECASSNGTLCAHICINTLGSYRCECREGYIREDDGKTCTRGDKYPNDTGHEKSENMVKAGTCCATCKEFYQMKQTVLQLKQKIALLPNNAADLGKYITGDKVLASNTYLPGPPGLPGGQGPPGSPGPKGSPGFPGMPGPPGQPGPRGSMGPMGPSPDLSHIKQGRRGPVGPPGAPGRDGSKGERGAPGPRGSPGPPGSFDFLLLMLADIRNDITELQEKVFGHRTHSSAEEFPLPQEFPSYPEAMDLGSGDDHPRRTETRDLRAPRDFYP
B1: the figures for the binding entry in experiment [2] and in experiment [3] were “binds weakly” and “binds”, respectively.
